Experimental data taken from article PMC6081406 (Nature Communications, 2018).

Assays:
[1] = target: GABAAR α3 subunit large cytoplasmic loop (AA 392-406); assay: ITC; CB-SH3 titrated against the receptor loops and truncated constructs; both purified
[2] = target: first half of the GABAAR α2 large intracellular loop; assay: as above
[3] = target: E domain of gephyrin (GephE, AA 318-736); assay: native gel or EMSA; NAGE; GephE alone or with CB-SH3; GephE with a fivefold molar excess of α2L and increasing amounts of the SH3 domain; both purified
[4] = target: GABAAR α3 subunit large cytoplasmic loop (AA 392-406); assay: SEC; analytical size exclusion chromatography; single proteins or equimolar mixtures of the SH3 domain with α1L, α2L or α3L; fractions analysed by SDS-PAGE; both purified
[5] = target: GABAAR α3 subunit large cytoplasmic loop (AA 392-406); assay: condition: threefold excess of GABAAR intracellular domains; native gel or EMSA; native agarose gel electrophoresis (NAGE), Coomassie staining; CB-SH3 alone or mixed with a threefold excess of GABAAR intracellular domains; both purified

B1: SH3 domain of collybistin (CB-SH3) (domain or fragment, murine, UniProt Q3UTH8 4-72, looked up)
chain: LITGDSIVSAEAVWDHVTMANRELAFKAGDVIKVLDASNKDWWWGQIDDEEGWFPASFVRLWVNQEDGV
notes: collybistin CB1, murine, residues 4-72, encompassing the complete SH3 domain (residues 8-67); pGEX construct provided by T. Soykan (Brose lab); source: E. coli, purified (GST tag, in-situ thrombin cleavage, Superdex 200 SEC); not shown: GST, N-terminal, cleaved
binding [1]: no binding (tested: >500 μM) | binding [2]: binds | binding [3]: no binding | binding [4]: no binding (tested: equimolar mixtures) | binding [5]: no binding

Results are given in words; binding and its absence hold for the method and conditions named. For some assays here: Binding can be weak; no strength is given.
